The experiment concerns HeLa. Nature of the experiment: lysosomal-METRIQ red/green fluorescence ratio relative to DMSO (ratio to DMSO); higher = higher lysosomal activity / lysosomal biogenesis. The note with it: 10 µM; 12 h.

Values joined by “and” are separate entries in the source; they are usually repeats but may differ in a detail not shown here. Identical values can stand only once. Counter-ions that a name gives are not always drawn. ± gives the standard deviation of the averaged measurements. The list shows a part of the results. Most values come without repeats; read them as rough.

As to `COc1ccc(CCN(C)CCCC(C#N)(c2ccc(OC)c(OC)c2)C(C)C)cc1OC` (stereo not given) [Verapamil], the “lysosomal-METRIQ red/green fluorescence ratio” value worked out at 0.92.
The result for `CCCC[C@@H](C)/C=C(C)/C=C(\C)C(=O)NC1=C[C@@](O)(/C=C/C=C/C=C/C(=O)NC2=C(O)CCC2=O)[C@@H]2O[C@@H]2C1=O` [Manumycin A] reads 1; that for `Cc1c(C)c2c(c(C)c1O)CCC(C)(COc1ccc(CC3SC(=O)NC3=O)cc1)O2` (stereo not given) [Troglitazone], 1; that for `CNC(=O)[C@H](Cc1c[nH]c2ccccc12)NC(=O)[C@@H](CC(=O)NO)CC(C)C`, 1.
Next, `CO[C@H]1C[C@@H]2CC[C@@H](C)[C@@](O)(O2)C(=O)C(=O)N2CCCC[C@H]2C(=O)O[C@H]([C@H](C)C[C@@H]2CC[C@@H](OCCO)[C@H](OC)C2)CC(=O)[C@H](C)/C=C(\C)[C@@H](O)[C@@H](OC)C(=O)[C@H](C)C[C@H](C)/C=C/C=C/C=C/1C` [everolimus]: 1.05.
The result for `CCOC(=O)C(C)(C)Oc1ccc(Cl)cc1` [Clofibrate] reads 1.04.
In the case of `O=c1c2ccccc2[nH]c(=S)n1CCN1CCC(=C(c2ccc(F)cc2)c2ccc(F)cc2)CC1` [Diacylglycerol kinase inhibitor II], the “lysosomal-METRIQ red/green fluorescence ratio” value came out at 1.
The result for `Cc1cccc(-c2nn3c(c2-c2ccnc4ccc(C(N)=O)cc24)CCC3)n1` reads 0.955; that for `Cc1nc2c(O)cccc2c(=O)[nH]1`, 1.07.
As for `COc1cc2c(cc1OC)-c1[nH]nc(Nc3cccc(F)c3)c1C2` [PDGF receptor tyrosine kinase inhibitor IV], the “lysosomal-METRIQ red/green fluorescence ratio” value was 1.12.
Turning to `N#C/C(=C\c1ccc(O)c(O)c1)C(=O)NCc1ccccc1`, the “lysosomal-METRIQ red/green fluorescence ratio” value is 1.06 ± 0.015.
With `CC1=C(/C=C/C(C)=C/C=C/C(C)=C/C(=O)O)C(C)(C)CCC1` [tretinoin], the “lysosomal-METRIQ red/green fluorescence ratio” value was found to be 0.818.
Next, `CNC(=O)c1ccc(N2C(=S)N(c3ccc(C#N)c(C(F)(F)F)c3)C(=O)C2(C)C)cc1F`: 0.864.
`CC(C)C(C(=O)O)N1C(=O)C(=Cc2ccc(Br)cc2)SC1=S` (stereo not given): the “lysosomal-METRIQ red/green fluorescence ratio” value amounted to 1.
As for `CC[C@@]1(O)C[C@H](O[C@H]2C[C@H](N(C)C)[C@H](O[C@H]3C[C@H](O)[C@H](O[C@H]4CCC(=O)[C@H](C)O4)[C@H](C)O3)[C@H](C)O2)c2c(cc3c(c2O)C(=O)c2c(O)cccc2C3=O)[C@H]1C(=O)OC` [Aclarubicin], the “lysosomal-METRIQ red/green fluorescence ratio” value came out at 1.26.
The result for `C/C=C/C=C\C=C/C(O)C(C)C(CCC(C)C1OC(=O)C=CC1C)OP(=O)(O)O` (stereo not given) [Cytostatin] reads 0.933; that for `O=c1cc(N2CCOCC2)oc2c(-c3ccccc3)cccc12`, 0.875 and 1; that for `COc1ccc(OC)c2c(=S)c3ccccc3[nH]c12`, 1.05.
The result for `CC(=N)NCc1cccc(CN)c1` reads 1; that for `COc1cc2ncnc(Nc3cccc(Cl)c3)c2cc1OC`, 1.07 ± 0.11; that for `CSCC[C@H](NC(=O)c1ccc(NC[C@@H](N)CS)cc1-c1ccccc1)C(=O)O`, 1.05.
The result for `COc1cccc2c1C(=O)c1c(O)c3c(c(O)c1C2=O)C[C@@](O)(C(C)=O)C[C@@H]3O[C@H]1C[C@H](N)[C@H](O)[C@H](C)O1` [Daunorubicin, HCl] reads 0.613; that for `COC(=O)C[C@H](NC(=O)[C@H](C)NC(=O)[C@@H](NC(=O)OCc1ccccc1)C(C)C)C(=O)CF`, 1; that for `N=C(N)NC(=O)c1nc(Cl)c(N)nc1N` [Amiloride], 1.
With `COc1cc(Nc2ncc3c(n2)-c2ccc(Cl)cc2C(c2c(F)cccc2OC)=NC3)ccc1C(=O)O`, the “lysosomal-METRIQ red/green fluorescence ratio” value was found to be 1.
Next, `CS(=O)(=O)c1ccc(C(=O)Nc2ccc(Cl)c(-c3ccccn3)c2)c(Cl)c1` [Vismodegib]: 1; `COc1cc2c(NC3CCN(C(C)C)CC3)nc(C3CCCCC3)nc2cc1OCCCN1CCCC1`: 0.455.
Regarding `O=C(O)c1cc(NCc2cc(O)ccc2O)ccc1O` [Lavendustin C], the “lysosomal-METRIQ red/green fluorescence ratio” value was 1.05.
For the molecule `CCCCOc1cc(CC2CNC(=O)N2)ccc1OC` (stereo not given), the “lysosomal-METRIQ red/green fluorescence ratio” value is 1.13.
Turning to `Cc1cc(N)c2ccccc2[n+]1CCCCCCCCCC[n+]1c(C)cc(N)c2ccccc21` [Dequalinium], the “lysosomal-METRIQ red/green fluorescence ratio” value came out at 0.88.
Next, `NNCCc1ccccc1` [Phenelzine]: 1.04.
Next, `Oc1nc(-c2ccc(C(F)(F)F)cc2)nc2c1CSCC2`: 0.909; `Oc1ccc(-c2nc(-c3ccc(F)cc3)c(-c3ccncc3)[nH]2)cc1`: 1.06.
Next, `CCCOc1ccccc1-c1nc2[nH]nnc2c(=O)[nH]1` [Zaprinast]: 1.07; `CC(C)c1cc(/C=C(\C#N)C(=O)NCCCc2ccccc2)cc(C(C)C)c1O`: 1.12 ± 0.097; `CC(Cc1ccc(O)c(O)c1)C(C)Cc1ccc(O)c(O)c1` (stereo not given) [Nordihydroguaiaretic acid (NDGA)]: 1.04.
Turning to `CC1(C)CCC(C)(C)c2cc(NC(=O)c3ccc(C(=O)O)cc3)ccc21` [tamibarotene], the “lysosomal-METRIQ red/green fluorescence ratio” value is 0.773.
Next, `CC(=O)N[C@@H](CS)C(=O)O` [N-Acetyl-L-cysteine]: 1.07.
Next, `CCN(CC)CC(=O)Nc1c(C)cccc1C` [Lidocaine]: 1.08; `COc1ccc(Cl)cc1C(=O)NCCc1ccc(S(=O)(=O)NC(=O)NC2CCCCC2)cc1` [Glibenclamide]: 1.04.
Next, `COc1cc2nccc(Oc3ccc(NC(=S)NC(=O)c4ccccc4C)cc3)c2cc1OC` [PDGF receptor tyrosine kinase inhibitor V]: 1; `CN(C)CC(=O)Nc1ccc2[nH]c(=O)c3ccccc3c2c1`: 0.818.
Turning to `Cc1c[nH]c(/C=C2\C(=O)Nc3ccccc32)c1CCC(=O)O`, the “lysosomal-METRIQ red/green fluorescence ratio” value came to 1.18.
Consider `CC(/C=C/C(=O)NO)=C\[C@@H](C)C(=O)c1ccc(N(C)C)cc1` [Trichostatin A], for which the “lysosomal-METRIQ red/green fluorescence ratio” value turned out to be 0.65.
The result for `CC(C)[C@H](CO)Nc1nc(Nc2cccc(Cl)c2)c2ncn(C(C)C)c2n1` [purvalanol A] reads 2.14.
Consider `Oc1c2ccccc2c2c3c(cccc13)N=N2`, for which the “lysosomal-METRIQ red/green fluorescence ratio” value was 0.969 ± 0.044.
Consider `CN(C)CC[C@H](CSc1ccccc1)Nc1ccc(S(=O)(=O)NC(=O)c2ccc(N3CCN(Cc4ccccc4-c4ccc(Cl)cc4)CC3)cc2)cc1[N+](=O)[O-]`, for which the “lysosomal-METRIQ red/green fluorescence ratio” value stood at 0.818.
Next, `C[C@@H](N)[C@H]1CC[C@H](C(=O)Nc2ccncc2)CC1`: 1.12 and 1.2; `CO[C@H]1C[C@@H]2CC[C@@H](C)[C@@](O)(O2)C(=O)C(=O)N2CCCC[C@H]2C(=O)O[C@H]([C@H](C)C[C@@H]2CC[C@@H](OC(=O)C(C)(CO)CO)[C@H](OC)C2)CC(=O)[C@H](C)/C=C(\C)[C@@H](O)[C@@H](OC)C(=O)[C@H](C)C[C@H](C)/C=C/C=C/C=C/1C` [temsirolimus]: 1.14.
In the case of `O=C(CCCCCCC(=O)Nc1ccccc1)NO` [vorinostat], the “lysosomal-METRIQ red/green fluorescence ratio” value is 0.455.
The result for `COc1cc2/c(=N/c3ccc(Br)cc3F)nc[nH]c2cc1OCC1CCN(C)CC1` [Vandetanib] reads 0.909; that for `CC(C)C(=O)Nc1ccc([N+](=O)[O-])c(C(F)(F)F)c1` [Flutamide], 0.968.
The result for `CSc1ccc(/C=C2/C(C)=C(CC(=O)O)c3cc(F)ccc32)cc1` [Sulindac sulfide] reads 1.05; that for `CS(=O)(=O)Nc1ccc([N+](=O)[O-])cc1OC1CCCCC1`, 1.05.
For the molecule `CCC(=C/[C@H](C)C/C=C/C(C)=C/[C@@H](C)C(=O)[C@@H](C)[C@H](O)[C@@H](C)C/C(C)=C/C(=O)O)/C=C/[C@@H]1OC(=O)C=C[C@@H]1C` [Leptomycin B*], the “lysosomal-METRIQ red/green fluorescence ratio” value came to 1.61.
On to `O=C(NCCCCCCNC(=O)ON=C1CCCCC1)ON=C1CCCCC1`, for which the “lysosomal-METRIQ red/green fluorescence ratio” value turned out to be 1.
Next, `NS(=O)(=O)c1ccc(Nc2nc(OCC3CCCCC3)c3[nH]cnc3n2)cc1`: 0.955; `COc1cc2nc(N3CCCN(C)CC3)nc(NC3CCN(Cc4ccccc4)CC3)c2cc1OC`: 0.636; `NC(=O)c1ccccc1` [Benzamide]: 1.13.
As to `COc1ccc(Cn2ccc3ccc(C(=O)NO)cc32)cc1`, the “lysosomal-METRIQ red/green fluorescence ratio” value was 0.955.
The result for `C[C@@H]1C[C@H]2O[C@@H]2/C=C\C=C\C(=O)Cc2c(Cl)c(O)cc(O)c2C(=O)O1` [Radicicol] reads 0.867; that for `CC(C)C[C@@H](N)[C@H](O)C(=O)N[C@H](C(=O)N[C@H](C(=O)N[C@@H](CC(=O)O)C(=O)O)C(C)C)C(C)C` [Amastatin], 0.96; that for `NC(=O)c1cccc2cn(-c3ccc([C@@H]4CCCNC4)cc3)nc12` [MK-4827 (Niraparib)], 0.955.
The result for `Cc1ncc2ccccc2c1C#N` [4-cyano-3-methylisoquinoline] reads 1.06; that for `Cc1ccc(Nc2nccc(N(C)c3ccc4c(C)n(C)nc4c3)n2)cc1S(N)(=O)=O` [pazopanib], 0.818.
Next, `CC(C)c1ccc2c(c1)c(SC(C)(C)C)c(CC(C)(C)C(=O)O)n2Cc1ccc(Cl)cc1`: 1.13.
In the case of `NC(=O)Nc1sc(-c2ccccc2)cc1C(N)=O` [IKK-2 inhibitor VI], the “lysosomal-METRIQ red/green fluorescence ratio” value was determined as 1.31.
Consider `O=C(Nc1cccc2cccnc12)c1ccc(N2C(=O)[C@@H]3[C@H](C2=O)[C@@H]2C=C[C@H]3C2)cc1` [IWR-1-endo], for which the “lysosomal-METRIQ red/green fluorescence ratio” value stood at 0.818.
Next, `N#CC(=C(/N)Sc1ccccc1N)/C(C#N)=C(/N)Sc1ccccc1N`: 0.938 and 1.07; `O=c1cc(-c2ccccc2)oc2cc(O)c(O)c(O)c12` [Baicalein]: 1.09.

Source of the values: the supplement of paper PMC6690932.
